From US7629382B2, “Use of tellurium containing compounds as nerve protecting agents” (BioMAS Ltd., priority 2003, dated 2009)
For at least one compound, name, drawing or mass did not settle the structure.

System: p21waf
Assay: p21waf protein expression in PC12 cells (Western blotting)
Format: cell-based
Conditions: PC12 cells pretreated before AS101
Method: PC12 cells were washed in serum-free medium, resuspended to 1-5×10^6cells/ml. After 24 hours of incubation at 37° C. in culture, the cells were supplemented with 3 ml of medium (RPMI 1640 containing 10% FCS, 2% glutamine and 1 mg/ml G418 (Life Technologies, Inc.). After another 24 hours, cells were resuspended and maintained in the selection medium. After 3-4 weeks in selective medium, transfected cells were analyzed for via Western blotting. Results are expressed as percent p21 as compared to the negative (no drug) control.
PC12 cell extracts (20 μg/lane of protein) boiled under reducing conditions, were subjected to electrophoresis on 7.5 and 12.5% polyacrylamide gels and electro-transferred to nitrocellulose membranes. The membrane was blocked for one hour with 10% powdered milk in 0.2% Tween 20, Tris-buffered saline, and then incubated with the appropriate specific detecting antibodies. Immunoreactive proteins were detected with horseradish peroxidase-conjugated secondary antibodies (Amersham, Arlington Heights, Ill.) and a chemiluminescence reagent. For immunoprecipitation studies, immune complexes were precipitated with Protein A-Sepharose (Pharmacia) and, following electrophoresis, were blotted with anti-phosphoserine or anti-phosphotyrosine antibodies.

SMILES: COC1=C2C[C@@H](C)C[C@H](OC)[C@H](O)[C@@H](C)/C=C(\C)[C@H](OC(N)=O)[C@@H](OC)/C=C\C=C(/C)C(=O)NC(=CC1=O)C2=O [geldanamycin]
- effect of pretreatment on p21waf protein expression induced by AS101: abolished
